Consider two substances from article PMC5940772 (Nature Communications, 2018).

The chains behind the UniProt entries cited, without tags or fusion partners. Where a name states a change or a piece, a line headed by the entry shows the natural chain unless it says otherwise. A line that says so, or that is headed by a name, gives the form on record, which may keep a tag or linker. Residues count along the entry.
UniProt Q14258: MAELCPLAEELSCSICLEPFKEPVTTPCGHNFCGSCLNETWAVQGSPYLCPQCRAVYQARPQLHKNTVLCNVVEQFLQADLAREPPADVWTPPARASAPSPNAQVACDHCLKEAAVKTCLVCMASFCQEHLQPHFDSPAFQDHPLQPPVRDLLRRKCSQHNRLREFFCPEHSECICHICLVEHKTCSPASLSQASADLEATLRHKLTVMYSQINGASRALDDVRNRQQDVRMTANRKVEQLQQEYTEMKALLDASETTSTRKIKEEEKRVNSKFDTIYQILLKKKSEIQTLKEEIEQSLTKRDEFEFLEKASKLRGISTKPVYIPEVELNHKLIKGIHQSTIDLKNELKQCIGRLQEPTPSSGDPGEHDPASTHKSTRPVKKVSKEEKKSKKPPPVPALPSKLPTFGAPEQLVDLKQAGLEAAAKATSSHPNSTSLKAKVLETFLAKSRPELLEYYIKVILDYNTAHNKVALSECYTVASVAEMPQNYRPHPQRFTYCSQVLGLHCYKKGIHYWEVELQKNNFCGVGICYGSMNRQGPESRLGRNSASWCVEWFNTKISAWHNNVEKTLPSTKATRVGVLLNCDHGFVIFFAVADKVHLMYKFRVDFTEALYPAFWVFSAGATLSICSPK
TRIM25-CC (coiled-coil domain of TRIM25, 189-379), tag removed: residues 189-379 of Q14258
UniProt P03496, residues 79-230: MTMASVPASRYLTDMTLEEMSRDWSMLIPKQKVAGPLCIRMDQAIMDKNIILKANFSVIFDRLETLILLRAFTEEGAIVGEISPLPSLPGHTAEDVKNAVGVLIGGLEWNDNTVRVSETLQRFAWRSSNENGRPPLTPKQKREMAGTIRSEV

Results are given in words; binding and its absence hold for the method and conditions named. Some binding calls cover weakened binding; strength is not graded here.

For assay [1], the target named is Human TRIM25 CC-PRYSPRY domain (residues 189-630) (human) (UniProt Q14258). Nature of the assay: crystal structure; both purified.
Assay [2] has as its target TRIM25-CC (coiled-coil domain of TRIM25, 189-379), tag removed (human) (UniProt Q14258). Nature of the assay: crystal structure; both purified.

Turning to “Human TRIM25 CC-PRYSPRY domain (residues 189-630) (from UniProt Q14258 189-630) (domain or fragment)”, the binding entry in assay [1] is given as “binds”. In the case of “NS1-ED (effector domain of NS1, 79-230) (from UniProt P03496 79-230) (domain or fragment)”, the binding result in assay [2] was “binds”.
